# Data: PMC9178234
# Sequences of proteins named here, by UniProt entry; tags and fusion partners are left off.
# UniProt P17931: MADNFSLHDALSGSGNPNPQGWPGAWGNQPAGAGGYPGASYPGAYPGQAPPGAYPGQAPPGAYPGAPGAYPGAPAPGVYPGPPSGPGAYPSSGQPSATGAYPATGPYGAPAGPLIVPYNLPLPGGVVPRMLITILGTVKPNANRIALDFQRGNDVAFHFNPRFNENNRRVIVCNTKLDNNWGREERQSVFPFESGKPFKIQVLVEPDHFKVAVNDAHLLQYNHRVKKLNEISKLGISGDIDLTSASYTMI
# These are yes or no findings as the source states them, for the method shown. Some entries that bind do so weakly or less than the wild type. Tags and fused reporters may be left off the sequences shown.
# Biological target: T1, Trem2-FLAG (UniProt Q99NH8)
# T1 sequence: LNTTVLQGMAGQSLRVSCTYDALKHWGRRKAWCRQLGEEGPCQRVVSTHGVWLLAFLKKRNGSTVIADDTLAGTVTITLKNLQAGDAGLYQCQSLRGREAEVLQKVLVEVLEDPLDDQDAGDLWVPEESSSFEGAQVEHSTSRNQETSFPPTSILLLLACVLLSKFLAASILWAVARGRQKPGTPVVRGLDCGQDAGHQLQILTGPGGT
# Assay: antibody-capture bead assay read by flow cytometry; Trem2-FLAG captured from lysates of vehicle or LPS-treated (100 ng/ml) BV-2 by anti-FLAG and protein A/G magnetic beads; beads stained with TAMRA-labeled Gal-3 (10 ug/ml) for 20 min at room temperature; mean fluorescence of beads; only the binder purified
substance,measurement,value
galectin-3 (from UniProt P17931 1-250) (ligand),binding,binds
